# Values quoted from earlier work, collected in patent publication US9546145B2, “Combination therapy for the treatment of chronic renal failure with an angiotensin II receptor antagonist and beraprost” (Toray Industries, Inc., priority 2003, dated 2017).
# At least one structure is not confirmed: it was looked up by name or label, or the drawing left a doubt.
# System: diabetes mellitus model in rats
# Conditions: each drug individually or in combination, versus control group; Am J Hypertens 1997 10: 202-208; cited from earlier work
structure (smiles),measurement,value
CCC(=O)O[C@@H](O[P@](=O)(CCCCc1ccccc1)CC(=O)N1C[C@H](C2CCCCC2)C[C@H]1C(=O)O)C(C)C [fosinopril],"renal function parameters such as urinary protein, damage of renal tissue",less severe
